Data: article PMC7053772, “Characterization and assembly of the Pseudomonas aeruginosa aspartate transcarbamoylase-pseudo dihydroorotase complex” (PLoS ONE, 2020)
These are yes or no findings as the source states them, for the method shown. Some results given as binding are weak or reduced against the parent protein; the word gives no strength.

Biological target: T1, P. aeruginosa ATCase without the first 11 residues (Pseudomonas aeruginosa) (UniProt Q59653)
T1 sequence: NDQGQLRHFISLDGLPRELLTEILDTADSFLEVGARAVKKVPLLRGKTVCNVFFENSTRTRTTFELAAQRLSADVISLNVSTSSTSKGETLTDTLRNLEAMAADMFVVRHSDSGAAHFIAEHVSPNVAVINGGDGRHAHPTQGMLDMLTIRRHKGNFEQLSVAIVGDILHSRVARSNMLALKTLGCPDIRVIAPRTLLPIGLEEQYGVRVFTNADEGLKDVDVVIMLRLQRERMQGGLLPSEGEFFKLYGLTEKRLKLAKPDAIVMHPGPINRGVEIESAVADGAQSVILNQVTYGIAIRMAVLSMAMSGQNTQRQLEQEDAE
Test: co-expression and co-purification, with ATCase activity of the product; mutant ATCase constructs co-transformed and co-purified with the pyrX gene encoding pDHO in E. coli

binding: binds
B1: Pseudomonas aeruginosa pseudo dihydroorotase (natural protein, Pseudomonas aeruginosa (strain PAO1), UniProt Q51551 1-423, looked up)
chain: MTISIRGARVIDPASDLDQVGDLHIEAGKIVAIGAAPAGFSAQKTLDGAGLVAAPGLVDLSVALREPGYGRKGNVESETRAAAAGGTTSLCCPPYTRPVLDTPAVAELILDRAREAGNAKVYPIGALTRGFGGEQLSELVALRDTGCVAFTNGLHGFASNRILRRALEYAATFDLTVIFTSQDTDLAEGGLAHEGPTASFLGLAGIPETAETVALARNLLLVEQSGVRAHFSQLTSARGIELVAQAQARGLPVTCDVALYQLILTDEALVGFSSLYHVQPPLRTRADREALREAVKNGVVQAIASHHQPHEADAKNAPFAATEPGISGAELLLPLAMTLVQDGLLDLPTLLARLSHGPAQALRLPAGRLAVGQAADLVLFDPQGSTLAGESWYSKGQNSPFVGHCLPGRVRYTLVDGHLTHEG
notes: Dimer by size exclusion chromatography; also called pDHO; pseudo-DHO; source: also co-transformed and co-purified with mutant ATCases
